Results from PubChem BioAssay AID328 (DTP/NCI, 2004).
The list is a part of this screen's results and no random one: it is rich in T/C values a quarter to a half above the control, in often repeated tests (any T/C) and in doses without a T/C. Other doses and runs of a compound stand elsewhere. T/C: endpoint of the treated group in % of that of the vehicle group. Some doses have a count of surviving animals in place of a T/C: the source holds a T/C of zero for them, seemingly a mark for toxic or unscored doses. Some doses without a T/C left all or most animals alive at the check, yet need not have been tolerated: the source hardly ever lists a survival T/C far under the control, and the zero likely stands for such cases as well. Counts of survivors are from the toxicity check (mostly the fifth day) where no day follows; animals may have died later. Schedules are NCI's codes, taken here to give the interval after Q, in days (D) or hours (H), and the number of doses after X. Where survival is the endpoint, the PubChem record calls one and a half times the control and up active, and a quarter to a half above the control has no call in these data; cut-offs in other NCI protocols can differ. Some doses were run more than once; the results are listed from low to high. Some T/C values carry the count of animals alive at the toxicity check (mostly the fifth day); where none is given, no animal had died by that day.

System: BDF1 mice, P388 leukemia ip, median survival T/C
Experiment: NCI In Vivo Anticancer Drug Screen. Data for tumor model P388 Leukemia (intraperitoneal) in B6D2F1 (BDF1) mice
Conditions: T/C endpoint: median survival time, higher T/C = longer survival
In short: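 Compound-treated tumour-bearing mice were compared with vehicle-treated controls. Survival was recorded, and the value is the treated-group measurement divided by the control-group measurement (T/C).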

[1] = dose: 100.0 mg/kg/injection, schedule: Q01DX009 (ip), vehicle: saline with Tween-80
[2] = dose: 6.0 mg/kg/injection, schedule: Q01DX009 (ip), vehicle: saline

For `CC1CC(C)(O)CC(C(O)CC2CC(=O)NC(=O)C2)C1=O` (centres undefined), the T/C (dose: 0.1 mg/kg/injection, schedule: Q01DX010 (ip), vehicle: saline) was 136 % of control, the T/C (dose: 0.2 mg/kg/injection, schedule: Q01DX010 (ip), vehicle: saline) was 140 % of control and the T/C (dose: 0.72 mg/kg/injection, schedule: Q04DX003 (ip), vehicle: saline) was 138 % of control. For the same compound, the T/C (dose: 0.78 mg/kg/injection, schedule: Q04DX003 (ip), vehicle: saline) was 140 % of control, the T/C (dose: 1.0 mg/kg/injection, schedule: Q04DX003 (ip), vehicle: saline) was 148 % of control [7 of 8 alive] and the T/C (dose: 1.3 mg/kg/injection, schedule: Q04DX003 (ip), vehicle: saline) was 143 % of control. The T/C (dose: 2.0 mg/kg/injection, schedule: Q04DX003 (ip), vehicle: saline) was 148 % of control, the T/C (dose: 2.16 mg/kg/injection, schedule: Q04DX003 (ip), vehicle: saline) was 144 % of control and the survivor count (dose: 4.0 mg/kg/injection, schedule: Q04DX003 (ip), vehicle: saline) was 4 of 8. The survivor count (dose: 8.0 mg/kg/injection, schedule: Q04DX003 (ip), vehicle: saline) was 3 of 8, the survivor count (dose: 10.0 mg/kg/injection, schedule: Q01DX001 (ip), vehicle: saline) was 4 of 8 and the T/C (dose: 173.0 micrograms/kg/injection, schedule: Q01DX009 (ip), vehicle: saline) was 142 [7 of 8 alive] and 147 % of control. The survivor count (dose: 480.0 micrograms/kg/injection, schedule: Q01DX009 (ip), vehicle: saline) was 6 of 8, the survivor count (dose: 800.0 micrograms/kg/injection, schedule: Q01DX009 (ip), vehicle: saline) was 7 of 8 and the T/C (dose: 1300.0 micrograms/kg/injection, schedule: Q04DX003 (ip), vehicle: saline) was 136 % of control. For the same compound, the T/C (dose: 1300.0 micrograms/kg/injection, schedule: Q04DX003 (sc), vehicle: saline) was 127 % of control, the survivor count (dose: 2160.0 micrograms/kg/injection, schedule: Q04DX003 (ip), vehicle: saline) was 3 of 8 and the T/C (dose: 2160.0 micrograms/kg/injection, schedule: Q04DX003 (sc), vehicle: saline) was 133 % of control. For the same compound, the survivor count (dose: 3600.0 micrograms/kg/injection, schedule: Q04DX003 (sc), vehicle: saline) was 8 of 8.
With `N#CCCCCCl` the survivor count (dose: 200.0 mg/kg/injection, schedule: Q01DX001 (ip), vehicle: saline) was 2 of 6 and the survivor count (dose: 400.0 mg/kg/injection, schedule: Q01DX001 (ip), vehicle: saline) was 0 of 6.
With `[O-][n+]1ccc(Cl)c2ccsc21` the survivor count (dose: 100.0 mg/kg/injection, schedule: Q04DX003 (ip), vehicle: saline with Tween-80) was 6 of 6.
`O=C(NNc1ccc(F)cc1)C12CC3CC(CC(C3)C1)C2` was tested, and the survivor count [1] was 6 of 6 and the survivor count (dose: 200.0 mg/kg/injection, schedule: Q01DX009 (ip), vehicle: saline with Tween-80) was 5 of 6.
In the case of `Cn1c(=O)oc2ccc(Cl)cc21`, the survivor count [1] is reported as 6 of 6.
`N#CN=C([S-])[S-].N#CN=C([S-])[S-].[Cu]` was tested, and the survivor count (dose: 12.5 mg/kg/injection, schedule: Q01DX009 (ip), vehicle: saline) was 5 of 6, the survivor count (dose: 25.0 mg/kg/injection, schedule: Q01DX009 (ip), vehicle: saline) was 2 of 6 and the survivor count (dose: 25.0 mg/kg/injection, schedule: Q04DX003 (ip), vehicle: saline) was 1 of 6.
`CC1C[N-]CC(C)C1.CC1C[N-]CC(C)C1.CC1C[N-]CC(C)C1.CC1C[N-]CC(C)C1.[Cl][Rh][Cl]` (centres undefined) was tested, and the T/C (dose: 0.75 mg/kg/injection, schedule: Q01DX009 (ip), vehicle: saline) was 146 % of control, the T/C (dose: 1.5 mg/kg/injection, schedule: Q01DX009 (ip), vehicle: saline) was 146 % of control and the T/C (dose: 3.0 mg/kg/injection, schedule: Q01DX009 (ip), vehicle: saline) was 136 and 146 % of control. For the same compound, the T/C [2] was 128 % of control, the survivor count [2] was 3 of 6 and the survivor count (dose: 12.0 mg/kg/injection, schedule: Q01DX009 (ip), vehicle: saline) was 1 of 6.
